Results taken from the supplement of paper PMC10849652.
This is one part of the list. Residues, ends and D or L forms follow the SMILES beside them. *: point of attachment. Cbz = O=C(OCc1ccccc1)*

Chains of the proteins cited; added tags and fusions are not shown. Lines headed by an entry give the natural chain unless they say otherwise; changes in a name come on top.
UniProt Q12904: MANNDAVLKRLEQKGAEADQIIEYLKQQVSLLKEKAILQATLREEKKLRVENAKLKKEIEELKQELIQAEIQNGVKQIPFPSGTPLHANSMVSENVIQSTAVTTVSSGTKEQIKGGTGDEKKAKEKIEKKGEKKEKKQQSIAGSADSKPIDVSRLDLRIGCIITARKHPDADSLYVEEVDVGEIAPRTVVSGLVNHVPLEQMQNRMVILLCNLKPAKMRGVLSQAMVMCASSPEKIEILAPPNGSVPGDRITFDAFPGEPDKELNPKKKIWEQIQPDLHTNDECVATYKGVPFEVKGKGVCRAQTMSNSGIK
UniProt P02771: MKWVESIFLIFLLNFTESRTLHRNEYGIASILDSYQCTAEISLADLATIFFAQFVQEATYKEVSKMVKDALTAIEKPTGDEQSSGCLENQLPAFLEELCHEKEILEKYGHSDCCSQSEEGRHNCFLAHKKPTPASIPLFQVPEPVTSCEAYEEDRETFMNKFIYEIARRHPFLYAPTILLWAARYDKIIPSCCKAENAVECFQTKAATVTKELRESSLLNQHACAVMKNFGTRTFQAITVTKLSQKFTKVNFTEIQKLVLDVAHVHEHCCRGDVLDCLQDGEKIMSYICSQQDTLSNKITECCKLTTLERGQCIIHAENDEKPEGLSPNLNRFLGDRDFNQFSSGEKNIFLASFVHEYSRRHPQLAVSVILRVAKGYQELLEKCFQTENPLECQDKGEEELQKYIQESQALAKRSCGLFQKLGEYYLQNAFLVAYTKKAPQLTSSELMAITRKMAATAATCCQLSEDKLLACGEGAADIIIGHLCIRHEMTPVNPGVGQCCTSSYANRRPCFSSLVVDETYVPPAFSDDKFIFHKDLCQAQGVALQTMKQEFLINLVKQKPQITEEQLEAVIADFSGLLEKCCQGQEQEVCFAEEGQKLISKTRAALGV
UniProt P51649: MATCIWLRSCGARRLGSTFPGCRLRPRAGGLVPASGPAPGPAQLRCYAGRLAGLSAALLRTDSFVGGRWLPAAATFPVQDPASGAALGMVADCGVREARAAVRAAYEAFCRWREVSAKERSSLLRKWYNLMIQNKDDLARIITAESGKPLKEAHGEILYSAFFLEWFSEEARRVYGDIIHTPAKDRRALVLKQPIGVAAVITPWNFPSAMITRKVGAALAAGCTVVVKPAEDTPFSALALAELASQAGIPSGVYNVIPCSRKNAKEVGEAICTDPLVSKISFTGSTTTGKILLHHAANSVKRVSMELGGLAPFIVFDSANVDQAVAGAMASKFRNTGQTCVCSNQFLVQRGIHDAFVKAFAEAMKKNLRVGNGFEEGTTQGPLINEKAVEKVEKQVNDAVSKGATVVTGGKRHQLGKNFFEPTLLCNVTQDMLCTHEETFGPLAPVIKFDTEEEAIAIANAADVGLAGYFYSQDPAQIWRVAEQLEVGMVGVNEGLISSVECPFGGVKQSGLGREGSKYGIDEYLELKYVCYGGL
UniProt Q9Y3D8, whole entry, looked up: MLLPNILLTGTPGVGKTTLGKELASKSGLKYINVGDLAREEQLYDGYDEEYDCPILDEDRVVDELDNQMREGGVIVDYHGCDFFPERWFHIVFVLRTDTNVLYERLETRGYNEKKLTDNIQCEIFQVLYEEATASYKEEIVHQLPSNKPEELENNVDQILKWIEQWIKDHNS
UniProt Q02252: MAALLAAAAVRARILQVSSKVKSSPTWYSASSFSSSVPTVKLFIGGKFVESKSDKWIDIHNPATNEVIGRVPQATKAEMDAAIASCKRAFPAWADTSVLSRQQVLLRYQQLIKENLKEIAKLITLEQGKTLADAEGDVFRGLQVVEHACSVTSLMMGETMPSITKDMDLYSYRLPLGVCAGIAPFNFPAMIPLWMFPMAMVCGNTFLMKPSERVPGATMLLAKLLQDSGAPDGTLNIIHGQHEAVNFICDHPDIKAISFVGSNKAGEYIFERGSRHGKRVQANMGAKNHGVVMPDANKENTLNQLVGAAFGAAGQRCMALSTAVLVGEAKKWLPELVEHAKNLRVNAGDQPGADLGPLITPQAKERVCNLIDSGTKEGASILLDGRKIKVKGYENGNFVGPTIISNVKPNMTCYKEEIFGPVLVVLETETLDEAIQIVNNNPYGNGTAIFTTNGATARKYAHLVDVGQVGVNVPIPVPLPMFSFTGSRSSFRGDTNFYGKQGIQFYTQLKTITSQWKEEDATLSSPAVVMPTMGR
UniProt P55263: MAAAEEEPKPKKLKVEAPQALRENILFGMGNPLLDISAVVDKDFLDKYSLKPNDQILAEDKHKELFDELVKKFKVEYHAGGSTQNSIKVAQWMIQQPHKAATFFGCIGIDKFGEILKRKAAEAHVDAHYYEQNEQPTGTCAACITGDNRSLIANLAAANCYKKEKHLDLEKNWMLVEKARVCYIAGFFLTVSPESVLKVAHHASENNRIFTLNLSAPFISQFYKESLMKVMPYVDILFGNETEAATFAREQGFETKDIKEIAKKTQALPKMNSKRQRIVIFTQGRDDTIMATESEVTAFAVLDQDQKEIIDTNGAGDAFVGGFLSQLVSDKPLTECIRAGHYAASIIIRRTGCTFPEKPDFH
UniProt Q96P47: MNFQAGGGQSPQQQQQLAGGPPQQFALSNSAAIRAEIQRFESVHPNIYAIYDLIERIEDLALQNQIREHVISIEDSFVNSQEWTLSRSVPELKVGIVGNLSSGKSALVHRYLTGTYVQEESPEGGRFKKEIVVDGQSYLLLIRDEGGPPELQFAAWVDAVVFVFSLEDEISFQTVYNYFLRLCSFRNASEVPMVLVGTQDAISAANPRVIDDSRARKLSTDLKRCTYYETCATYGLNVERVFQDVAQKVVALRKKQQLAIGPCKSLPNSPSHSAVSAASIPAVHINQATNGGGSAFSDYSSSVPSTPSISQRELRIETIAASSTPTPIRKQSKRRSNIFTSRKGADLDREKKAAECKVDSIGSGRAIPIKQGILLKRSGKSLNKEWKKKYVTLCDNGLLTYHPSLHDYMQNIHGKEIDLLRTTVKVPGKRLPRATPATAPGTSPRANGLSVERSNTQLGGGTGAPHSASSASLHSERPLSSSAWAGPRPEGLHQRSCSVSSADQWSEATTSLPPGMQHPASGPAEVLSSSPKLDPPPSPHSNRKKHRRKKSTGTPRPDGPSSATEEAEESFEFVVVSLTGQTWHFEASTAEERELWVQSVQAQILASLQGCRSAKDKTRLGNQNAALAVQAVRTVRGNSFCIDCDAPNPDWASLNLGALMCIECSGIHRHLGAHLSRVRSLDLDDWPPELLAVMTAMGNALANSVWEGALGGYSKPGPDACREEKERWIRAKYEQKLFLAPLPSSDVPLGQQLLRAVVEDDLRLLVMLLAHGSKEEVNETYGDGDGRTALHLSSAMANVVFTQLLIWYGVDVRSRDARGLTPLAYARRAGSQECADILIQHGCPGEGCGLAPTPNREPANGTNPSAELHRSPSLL
UniProt P11766: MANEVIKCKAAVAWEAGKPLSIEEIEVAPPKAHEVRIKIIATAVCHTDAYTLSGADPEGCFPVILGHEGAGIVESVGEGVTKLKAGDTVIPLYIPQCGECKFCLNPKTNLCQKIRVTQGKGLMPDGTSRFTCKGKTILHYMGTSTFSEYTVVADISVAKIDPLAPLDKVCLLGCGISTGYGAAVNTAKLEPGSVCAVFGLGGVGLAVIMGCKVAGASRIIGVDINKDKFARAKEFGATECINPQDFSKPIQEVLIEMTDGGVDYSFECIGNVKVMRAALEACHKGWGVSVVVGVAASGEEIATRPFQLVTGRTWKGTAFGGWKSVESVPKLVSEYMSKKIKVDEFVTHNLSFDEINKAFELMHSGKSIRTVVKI
UniProt Q9Y673: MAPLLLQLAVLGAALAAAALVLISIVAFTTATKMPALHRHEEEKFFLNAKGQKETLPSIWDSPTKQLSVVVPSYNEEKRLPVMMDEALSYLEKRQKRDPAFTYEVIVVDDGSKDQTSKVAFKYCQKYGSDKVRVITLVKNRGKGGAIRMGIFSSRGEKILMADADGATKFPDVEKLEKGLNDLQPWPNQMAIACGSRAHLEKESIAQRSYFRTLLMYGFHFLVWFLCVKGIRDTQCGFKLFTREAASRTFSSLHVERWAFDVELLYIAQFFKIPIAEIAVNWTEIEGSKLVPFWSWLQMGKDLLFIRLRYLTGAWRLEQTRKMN
UniProt Q9BRQ8: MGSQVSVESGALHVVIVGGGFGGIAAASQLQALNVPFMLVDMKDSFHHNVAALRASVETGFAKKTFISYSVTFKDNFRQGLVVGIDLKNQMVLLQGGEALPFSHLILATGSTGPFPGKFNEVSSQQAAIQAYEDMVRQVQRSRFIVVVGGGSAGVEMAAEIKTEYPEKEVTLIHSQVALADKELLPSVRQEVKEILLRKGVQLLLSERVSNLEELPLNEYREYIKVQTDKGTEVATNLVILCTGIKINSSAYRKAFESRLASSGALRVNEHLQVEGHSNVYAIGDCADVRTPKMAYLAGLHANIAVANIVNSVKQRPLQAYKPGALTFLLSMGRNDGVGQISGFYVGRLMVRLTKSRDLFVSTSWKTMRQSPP
UniProt Q2TAA5: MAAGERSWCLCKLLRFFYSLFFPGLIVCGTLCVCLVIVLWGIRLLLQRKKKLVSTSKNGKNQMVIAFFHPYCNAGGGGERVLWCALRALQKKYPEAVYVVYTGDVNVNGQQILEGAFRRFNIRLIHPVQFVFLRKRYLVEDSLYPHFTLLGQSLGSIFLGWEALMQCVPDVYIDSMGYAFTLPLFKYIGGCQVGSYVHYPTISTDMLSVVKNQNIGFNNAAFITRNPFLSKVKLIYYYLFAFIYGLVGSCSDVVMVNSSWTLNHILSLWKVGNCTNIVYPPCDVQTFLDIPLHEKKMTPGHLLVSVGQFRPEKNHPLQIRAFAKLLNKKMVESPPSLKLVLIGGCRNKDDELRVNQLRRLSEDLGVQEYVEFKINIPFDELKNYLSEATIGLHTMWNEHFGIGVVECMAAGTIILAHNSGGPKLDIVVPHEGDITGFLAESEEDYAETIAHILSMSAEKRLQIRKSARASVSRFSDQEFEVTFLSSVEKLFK
UniProt Q16186: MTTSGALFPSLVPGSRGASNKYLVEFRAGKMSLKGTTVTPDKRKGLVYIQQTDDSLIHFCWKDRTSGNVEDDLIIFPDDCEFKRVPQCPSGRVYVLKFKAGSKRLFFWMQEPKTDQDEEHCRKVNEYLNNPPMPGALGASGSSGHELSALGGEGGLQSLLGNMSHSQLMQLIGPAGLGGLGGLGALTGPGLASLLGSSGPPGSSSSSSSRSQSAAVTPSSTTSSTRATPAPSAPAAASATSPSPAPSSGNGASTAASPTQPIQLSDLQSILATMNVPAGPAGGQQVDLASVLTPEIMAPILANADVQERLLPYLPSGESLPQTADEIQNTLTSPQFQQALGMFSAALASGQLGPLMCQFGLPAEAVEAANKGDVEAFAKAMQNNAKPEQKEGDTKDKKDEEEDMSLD
UniProt P42330: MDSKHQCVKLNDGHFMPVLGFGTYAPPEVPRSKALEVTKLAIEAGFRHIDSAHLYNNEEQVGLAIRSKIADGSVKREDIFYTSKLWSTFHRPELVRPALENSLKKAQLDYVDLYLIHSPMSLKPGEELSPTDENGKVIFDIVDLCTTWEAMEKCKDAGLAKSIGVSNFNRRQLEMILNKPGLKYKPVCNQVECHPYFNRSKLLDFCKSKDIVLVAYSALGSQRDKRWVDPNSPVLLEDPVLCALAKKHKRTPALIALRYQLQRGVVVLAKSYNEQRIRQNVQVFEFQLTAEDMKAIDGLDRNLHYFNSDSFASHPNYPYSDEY
UniProt P31749: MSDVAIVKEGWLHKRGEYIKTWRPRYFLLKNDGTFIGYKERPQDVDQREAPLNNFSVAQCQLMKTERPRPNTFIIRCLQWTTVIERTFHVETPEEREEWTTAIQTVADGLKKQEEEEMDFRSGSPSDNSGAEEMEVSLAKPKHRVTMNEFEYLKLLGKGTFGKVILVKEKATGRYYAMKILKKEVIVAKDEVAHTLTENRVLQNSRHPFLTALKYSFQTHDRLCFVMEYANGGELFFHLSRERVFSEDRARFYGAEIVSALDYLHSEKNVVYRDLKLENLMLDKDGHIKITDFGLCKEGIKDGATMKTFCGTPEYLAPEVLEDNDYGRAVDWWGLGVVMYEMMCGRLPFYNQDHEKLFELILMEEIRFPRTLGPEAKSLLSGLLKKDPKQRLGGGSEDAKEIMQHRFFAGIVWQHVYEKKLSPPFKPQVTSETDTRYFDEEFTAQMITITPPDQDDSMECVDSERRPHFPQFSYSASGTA
UniProt Q99943: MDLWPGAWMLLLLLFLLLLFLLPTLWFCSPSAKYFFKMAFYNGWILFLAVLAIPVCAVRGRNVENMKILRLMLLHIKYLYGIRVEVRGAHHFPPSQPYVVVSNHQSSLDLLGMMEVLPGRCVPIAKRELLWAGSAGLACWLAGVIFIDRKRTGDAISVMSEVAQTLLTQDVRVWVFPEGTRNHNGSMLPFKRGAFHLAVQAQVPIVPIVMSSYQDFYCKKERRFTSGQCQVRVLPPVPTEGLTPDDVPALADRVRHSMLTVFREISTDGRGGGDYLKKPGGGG

Assays:
Experiment in all cases: log2 fold change, soluble protein after heating vs DMSO (PISA); higher = thermal stabilisation; K562 cells, 10 uM, 30 min; active = over 0.2 and 3.5 SD of the protein, either way, in both replicates (recomputed)
IRAK-1-4 Inhibitor I = compound: C1COCCN1CCN2C3=CC=CC=C3N=C2NC(=O)C4=CC(=CC=C4)[N+](=O)[O-] [IRAK-1-4 Inhibitor I]
Procedure, shortened: (§1)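 K562 cells at 2×10^6 cells/mL were treated with 10 μM compound for 30 min. Aliquots were heated for 3 min across 48°C-58°C, pooled, and extracted in PBS with 0.5% NP-40 at 4°C; soluble protein was the supernatant after 21,000xg for 90 min. Soluble protein was quantified by TMTpro 16plex LC-MS/MS with channel sums equalised, and reported as log2 fold change in thermal stability against DMSO controls, with values from duplicates.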

ibrutinib = compound: C=CC(=O)N1CCC[C@@H](n2nc(-c3ccc(Oc4ccccc4)cc3)c3c(N)ncnc32)C1 [ibrutinib]
Procedure, shortened: as §1

[1] = compound: CC(=O)c1cnc2ccc(-c3cc(Cl)c(O)c(Cl)c3)nc2c1N[C@H]1CC[C@H](CN(C)C)CC1
Procedure, shortened: as §1

ralimetinib = compound: CC(C)(C)Cn1c(N)nc2ccc(-c3[nH]c(C(C)(C)C)nc3-c3ccc(F)cc3)nc21 [ralimetinib]
Procedure, shortened: as §1

[2] = compound: CC(C)(O)CC(=O)NCCn1ccc2ncnc(Nc3ccc(Oc4cccc(C(F)(F)F)c4)c(Cl)c3)c21
Procedure, shortened: as §1

[3] = compound: CC(C)C1=C2N=C(C=C(N2N=C1)NCC3=CC=CC=C3)NCCCCCCN
Procedure, shortened: as §1

[4] = compound: CC(C)C[C@@H](C=O)NC(=O)[C@H](CC(C)C)NC(=O)[C@H](CC(C)C)NC(=O)OCc1ccccc1
Procedure, shortened: as §1

pinometostat = compound: CC(C)N(C[C@H]1O[C@@H](n2cnc3c(N)ncnc32)[C@H](O)[C@@H]1O)[C@H]1C[C@@H](CCc2nc3cc(C(C)(C)C)ccc3[nH]2)C1 [pinometostat]
Procedure, shortened: as §1

[5] = compound: CC1=C(C(CC(=O)N1)C2=CC=C(C=C2)C(F)(F)F)C(=O)NC3=C(C=C4C(=C3)C=NN4)F
Procedure, shortened: as §1

[6] = compound: CC1=C(C2=C(C=C1)C(=O)C3=CC=CC=C3N2CCCN)C
Procedure, shortened: as §1

Measured: log2 fold change

AIMP1 isoform 2 (UniProt Q12904)
inactive: IRAK-1-4 Inhibitor I -0.13 | ibrutinib 0.033 | [1] 0.227 | ralimetinib 0.313 | [2] 0 | [3] -0.234 | [4] 0.18 | pinometostat 0.535 | [5] 0.011 | [6] -0.006

AHCTF1 isoform 2 (UniProt Q8WYP5)
inactive: IRAK-1-4 Inhibitor I -0.034 | ibrutinib 0.054 | [1] -0.008 | ralimetinib 0.002 | [2] 0.053 | [3] -0.089 | [4] 0.028 | pinometostat 0.061 | [5] -0.044 | [6] 0.062

AK2 isoform 2 (UniProt P54819)
inactive: IRAK-1-4 Inhibitor I 0.035 | ibrutinib -0.015 | [1] 0.011 | ralimetinib -0.068 | [2] -0.001 | [3] 0.068 | [4] -0.014 | pinometostat -0.038 | [5] 0.012 | [6] 0.002

AFP (UniProt P02771)
inactive: IRAK-1-4 Inhibitor I 0.007 | ibrutinib 0.268 | [1] 0.21 | ralimetinib 0.011 | [2] 0.245 | [3] 0.175 | [4] 0.08 | pinometostat -0.239 | [5] 0.075 | [6] -0.331

ALDH5A1 isoform 2 (UniProt P51649)
inactive: IRAK-1-4 Inhibitor I 0.033 | ibrutinib 0.013 | [1] 0.015 | ralimetinib -0.063 | [2] -0.001 | [3] 0.04 | [4] -0.007 | pinometostat -0.045 | [5] -0.004 | [6] 0.013

AFG1L (UniProt Q8WV93)
active: [3] -0.385
inactive: IRAK-1-4 Inhibitor I 0.014 | ibrutinib -0.016 | [1] -0.135 | ralimetinib -0.134 | [2] -0.091 | [4] 0.146 | pinometostat 0.023 | [6] -0.056

ADPRHL2 (UniProt Q9NX46)
inactive: IRAK-1-4 Inhibitor I 0 | ibrutinib -0.021 | [1] -0.025 | ralimetinib -0.021 | [2] -0.088 | [3] 0.08 | [4] -0.038 | pinometostat -0.015 | [6] -0.002

AK6 (UniProt Q9Y3D8)
inactive: IRAK-1-4 Inhibitor I -0.051 | ibrutinib -0.014 | [1] -0.132 | ralimetinib 0.067 | [2] -0.175 | [3] -0.309 | [4] 0.039 | pinometostat 0.078 | [6] 0.138

2 successive entries already listed, for reference:
AFP (UniProt P02771)
inactive: IRAK-1-4 Inhibitor I 0.007 | ibrutinib 0.268 | [1] 0.21 | ralimetinib 0.011 | [2] 0.245 | [3] 0.175 | [4] 0.08 | pinometostat -0.239 | [5] 0.075 | [6] -0.331

ALDH5A1 isoform 2 (UniProt P51649)
inactive: IRAK-1-4 Inhibitor I 0.033 | ibrutinib 0.013 | [1] 0.015 | ralimetinib -0.063 | [2] -0.001 | [3] 0.04 | [4] -0.007 | pinometostat -0.045 | [5] -0.004 | [6] 0.013

Next records:

ALDH6A1 (UniProt Q02252)
inactive: IRAK-1-4 Inhibitor I 0.004 | ibrutinib -0.023 | [1] -0.041 | ralimetinib 0.019 | [2] -0.155 | [3] -0.068 | [4] -0.002 | pinometostat -0.01 | [6] 0.018

ADK (UniProt P55263)
inactive: IRAK-1-4 Inhibitor I 0.08 | ibrutinib 0.034 | [1] 0.184 | ralimetinib 0.246 | [2] -0.002 | [3] 0.074 | [4] -0.058 | pinometostat 0.016 | [6] -0.001

AGAP3 isoform 4 (UniProt Q96P47)
inactive: IRAK-1-4 Inhibitor I -0.024 | ibrutinib -0.018 | [1] -0.223 | ralimetinib 0.25 | [2] 0.009 | [3] -0.182 | [4] -0.044 | pinometostat 0.245 | [6] -0.043

ADH5 (UniProt P11766)
inactive: IRAK-1-4 Inhibitor I 0.038 | ibrutinib 0.011 | [1] 0.014 | ralimetinib -0.097 | [2] -0.02 | [3] 0.05 | [4] -0.041 | pinometostat -0.05 | [6] 0.019

ALG5 (UniProt Q9Y673)
active: [1] -0.281
inactive: IRAK-1-4 Inhibitor I 0.026 | ibrutinib -0.043 | ralimetinib 0.009 | [2] -0.009 | [3] -0.004 | [4] 0 | pinometostat -0.002 | [6] 0.07

AHSA1 (UniProt O95433)
inactive: IRAK-1-4 Inhibitor I 0.002 | ibrutinib -0.043 | [1] -0.007 | ralimetinib 0 | [2] -0.022 | [3] -0.038 | [4] -0.008 | pinometostat -0.045 | [6] 0

AIFM2 (UniProt Q9BRQ8)
inactive: IRAK-1-4 Inhibitor I 0.011 | ibrutinib -0.008 | [1] 0 | ralimetinib -0.005 | [2] 0.189 | [3] 0.161 | [4] -0.061 | pinometostat 0.044 | [6] 0.021

ALG11 (UniProt Q2TAA5)
active: [6] 0.23
inactive: IRAK-1-4 Inhibitor I 0.003 | ibrutinib 0.09 | [1] 0.053 | ralimetinib -0.014 | [2] -0.112 | [3] 0.037 | [4] -0.064 | pinometostat 0.032

ADRM1 (UniProt Q16186)
inactive: IRAK-1-4 Inhibitor I -0.096 | ibrutinib -0.111 | [1] 0.033 | ralimetinib 0.065 | [2] -0.077 | [3] -0.005 | [4] -0.064 | pinometostat 0.015 | [6] 0.04

AKR1C3 (UniProt P42330)
inactive: IRAK-1-4 Inhibitor I 0.072 | ibrutinib -0.108 | [1] 0.015 | ralimetinib 0.085 | [2] 0.265 | [3] 0.025 | [4] -0.149 | pinometostat -0.069 | [6] -0.049

AKR1C2 (UniProt P52895)
inactive: IRAK-1-4 Inhibitor I -0.218 | ibrutinib 0.006 | [1] -0.043 | ralimetinib -0.015 | [2] 0.099 | [3] -0.16 | [4] -0.043 | pinometostat 0.049 | [6] -0.063

AGRN (UniProt O00468)
inactive: IRAK-1-4 Inhibitor I -0.205 | ibrutinib 0.09 | [1] -0.025 | ralimetinib 0.125 | [2] -0.022 | [3] 0.156 | [4] -0.066 | pinometostat -0.005 | [6] 0.014

ALG3 (UniProt Q92685)
inactive: IRAK-1-4 Inhibitor I -0.081 | ibrutinib -0.022 | [1] -0.08 | ralimetinib -0.08 | [2] -0.034 | [3] -0.267 | [4] -0.038 | pinometostat -0.075 | [6] -0.045

AKT1 (UniProt P31749)
inactive: IRAK-1-4 Inhibitor I -0.014 | ibrutinib -0.244 | [1] 0.03 | ralimetinib -0.023 | [2] 0.01 | [3] -0.141 | [4] 0.07 | pinometostat -0.051 | [6] -0.038

AGPAT1 (UniProt Q99943)
inactive: IRAK-1-4 Inhibitor I 0 | ibrutinib -0.083 | [1] -0.051 | ralimetinib 0.012 | [2] -0.109 | [3] 0.06 | [4] -0.005 | pinometostat 0.02 | [6] -0.017

AKAP8L (UniProt Q9ULX6)
inactive: IRAK-1-4 Inhibitor I -0.076 | ibrutinib -0.001 | [1] -0.128 | ralimetinib 0.091 | [2] -0.091 | [3] -0.299 | [4] 0.106 | pinometostat -0.018 | [6] -0.34

ADD1 isoform 3 (UniProt P35611)
inactive: IRAK-1-4 Inhibitor I 0.048 | ibrutinib 0.011 | ralimetinib -0.068 | [2] -0.008 | [3] 0.038 | [4] -0.003 | pinometostat -0.001 | [6] 0.008
active: [1] -0.274

AKT2 (UniProt P31751)
inactive: IRAK-1-4 Inhibitor I -0.013 | ibrutinib -0.033 | [1] -0.039 | ralimetinib -0.015 | [2] -0.027 | [3] -0.179 | [4] 0 | pinometostat -0.016 | [6] -0.011
